Results from patent US6906179.
These are yes or no findings as the source states them, for the method shown. For some assays here: In cells and extracts the contact can be indirect. Some results given as binding are weak or reduced against the parent protein; the word gives no strength. Values belong to the binder of their own block, whether it stands above or below them.

By UniProt entry, the sequences of proteins in these tests, tags left out. Where a name states a change or a piece, a line headed by the entry shows the natural chain unless it says otherwise. Residues count along the entry.
UniProt P84022: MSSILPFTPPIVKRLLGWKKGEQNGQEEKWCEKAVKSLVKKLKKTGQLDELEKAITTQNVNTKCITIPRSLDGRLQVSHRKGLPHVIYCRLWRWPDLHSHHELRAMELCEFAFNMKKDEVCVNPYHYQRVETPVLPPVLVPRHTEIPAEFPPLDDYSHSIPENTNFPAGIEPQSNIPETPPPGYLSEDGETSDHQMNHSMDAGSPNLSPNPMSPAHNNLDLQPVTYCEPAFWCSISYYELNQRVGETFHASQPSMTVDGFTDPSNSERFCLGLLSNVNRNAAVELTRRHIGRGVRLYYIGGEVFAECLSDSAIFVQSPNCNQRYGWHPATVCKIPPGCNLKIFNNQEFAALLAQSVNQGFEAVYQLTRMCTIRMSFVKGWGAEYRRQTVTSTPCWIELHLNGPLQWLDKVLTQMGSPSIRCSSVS
Smad3N (aa 1-144): residues 1-144 of P84022
Smad3C (aa 231-424): residues 231-424 of P84022
UniProt P0A7C2: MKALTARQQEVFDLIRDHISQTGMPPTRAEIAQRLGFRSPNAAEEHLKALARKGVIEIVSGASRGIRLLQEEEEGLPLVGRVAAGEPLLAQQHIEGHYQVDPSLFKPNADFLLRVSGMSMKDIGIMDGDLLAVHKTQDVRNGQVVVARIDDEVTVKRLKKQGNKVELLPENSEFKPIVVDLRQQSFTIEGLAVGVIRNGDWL
UniProt P28070: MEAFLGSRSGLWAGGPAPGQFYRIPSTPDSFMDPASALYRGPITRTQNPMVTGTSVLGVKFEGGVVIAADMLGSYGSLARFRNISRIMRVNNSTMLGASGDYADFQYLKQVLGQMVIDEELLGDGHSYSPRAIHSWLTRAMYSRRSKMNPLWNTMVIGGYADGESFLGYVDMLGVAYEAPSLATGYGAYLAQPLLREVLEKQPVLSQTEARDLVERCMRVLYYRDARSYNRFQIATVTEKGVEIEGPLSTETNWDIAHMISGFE
UniProt P54368, residues 101-228: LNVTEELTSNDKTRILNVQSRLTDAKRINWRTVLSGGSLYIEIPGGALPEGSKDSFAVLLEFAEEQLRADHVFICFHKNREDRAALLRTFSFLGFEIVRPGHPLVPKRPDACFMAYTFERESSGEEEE
UniProt Q15796: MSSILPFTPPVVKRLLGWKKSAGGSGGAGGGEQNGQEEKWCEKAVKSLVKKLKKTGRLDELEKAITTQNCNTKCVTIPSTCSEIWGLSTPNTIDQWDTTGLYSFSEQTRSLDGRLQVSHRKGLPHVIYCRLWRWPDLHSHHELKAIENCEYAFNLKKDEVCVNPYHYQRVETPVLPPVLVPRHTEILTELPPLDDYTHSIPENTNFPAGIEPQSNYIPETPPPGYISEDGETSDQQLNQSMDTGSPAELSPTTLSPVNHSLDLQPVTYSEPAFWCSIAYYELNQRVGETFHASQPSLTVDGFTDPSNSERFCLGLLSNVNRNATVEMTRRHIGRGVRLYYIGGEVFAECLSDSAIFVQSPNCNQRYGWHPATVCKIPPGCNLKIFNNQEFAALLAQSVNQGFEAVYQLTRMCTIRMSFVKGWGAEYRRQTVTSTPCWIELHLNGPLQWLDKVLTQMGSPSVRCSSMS
UniProt Q13485: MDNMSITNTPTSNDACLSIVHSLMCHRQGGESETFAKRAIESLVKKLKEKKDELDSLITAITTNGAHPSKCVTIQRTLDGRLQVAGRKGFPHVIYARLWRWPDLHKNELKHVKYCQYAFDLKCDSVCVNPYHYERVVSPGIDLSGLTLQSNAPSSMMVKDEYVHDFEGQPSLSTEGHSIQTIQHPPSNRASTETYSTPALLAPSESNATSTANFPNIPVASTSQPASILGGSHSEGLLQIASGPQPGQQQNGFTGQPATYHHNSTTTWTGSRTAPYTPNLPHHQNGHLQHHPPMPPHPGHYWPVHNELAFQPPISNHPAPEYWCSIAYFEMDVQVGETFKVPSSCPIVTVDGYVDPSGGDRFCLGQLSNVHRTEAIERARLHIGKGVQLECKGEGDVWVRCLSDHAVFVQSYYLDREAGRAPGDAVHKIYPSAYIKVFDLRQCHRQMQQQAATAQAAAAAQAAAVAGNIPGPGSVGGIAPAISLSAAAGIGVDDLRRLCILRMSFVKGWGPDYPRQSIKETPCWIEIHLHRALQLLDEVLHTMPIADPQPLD

Key:
Smad3 [1] = molecular target: Smad3 (UniProt P84022); experiment: co-immunoprecipitation, transfected cells
Smad3C (aa 231-424) = Smad3C (aa 231-424) (UniProt P84022); experiment: co-immunoprecipitation, transfected cells
Smad3N (aa 1-144) = Smad3N (aa 1-144) (UniProt P84022); experiment: co-immunoprecipitation, transfected cells
Smad3 [2] = molecular target: Smad3 (UniProt P84022); experiment: co-immunoprecipitation, transfected 293 cells
[3] = molecular target: LexA-Smad1 (full length Smad1 fused in frame to the LexA DNA binding domain (1-202) in pEG202) (UniProt P0A7C2); experiment: yeast two-hybrid
HsN3 (human) [4] = molecular target: HsN3 (human) (UniProt P28070); experiment: yeast two-hybrid
antizyme (human) [5] = molecular target: antizyme (human) (UniProt P54368); experiment: yeast two-hybrid
[6] = molecular target: LexA-Smad1 (full length Smad1 fused in frame to the LexA DNA binding domain (1-202) in pEG202) (UniProt P0A7C2); experiment: yeast two-hybrid screen, LexA-Smad1 bait
Smad3 [7] = molecular target: Smad3 (UniProt P84022); experiment: yeast two-hybrid; list of Smad3 interactors
HsN3 (human) [8] = molecular target: HsN3 (human) (UniProt P28070); experiment: list of HsN3 interactors; method not detailed
[9] = molecular target: LexA-Smad1 (full length Smad1 fused in frame to the LexA DNA binding domain (1-202) in pEG202) (UniProt P0A7C2); experiment: yeast two-hybrid; list of Smad1 interactors
Smad2 = Smad2 (UniProt Q15796); experiment: yeast two-hybrid; list of Smad2 interactors
HsN3 (human) [10] = molecular target: HsN3 (human) (UniProt P28070); experiment: method not detailed
Clone S1+12 (human) = molecular target: T1, Clone S1+12 (human); experiment: method not detailed
T1 sequence: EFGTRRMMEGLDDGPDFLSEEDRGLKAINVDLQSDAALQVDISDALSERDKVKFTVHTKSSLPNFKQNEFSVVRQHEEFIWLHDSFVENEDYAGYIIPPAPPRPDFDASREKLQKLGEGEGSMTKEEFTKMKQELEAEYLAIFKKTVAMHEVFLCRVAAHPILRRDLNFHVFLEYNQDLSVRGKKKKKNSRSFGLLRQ

antizyme (human) [11] = molecular target: antizyme (human) (UniProt P54368); experiment: method not detailed
antizyme (human) [12] = molecular target: antizyme (human) (UniProt P54368); experiment: list of antizyme interactors; yeast two-hybrid (FIG. 30)
Smad4 = Smad4 (UniProt Q13485); experiment: method not detailed; told in the description only

binding (Smad3 [1]): binds | binding (Smad3C (aa 231-424)): binds | binding (Smad3N (aa 1-144)): binds | binding (Smad3 [2]): binds
B1: p115HEF1 (full length HEF1, 115 kD form) (protein, human, UniProt Q14511 1-834, looked up)
chain: MKYKNLMARALYDNVPECAEELAFRKGDILTVIEQNTGGLEGWWLCSLHGRQGIVPGNRVKLLIGPMQETASSHEQPASGLMQQTFGQQKLYQVPNPQAAPRDTIYQVPPSYQNQGIYQVPTGHGTQEQEVYQVPPSVQRSIGGTSGPHVGKKVITPVRTGHGYVYEYPSRYQKDVYDIPPSHTTQGVYDIPPSSAKGPVFSVPVGEIKPQGVYDIPPTKGVYAIPPSACRDEAGLREKDYDFPPPMRQAGRPDLRPEGVYDIPPTCTKPAGKDLHVKYNCDIPGAAEPVARRHQSLSPNHPPPQLGQSVGSQNDAYDVPRGVQFLEPPAETSEKANPQERDGVYDVPLHNPPDAKGSRDLVDGINRLSFSSTGSTRSNMSTSSTSSKESSLSASPAQDKRLFLDPDTAIERLQRLQQALEMGVSSLMALVTTDWRCYGYMERHINEIRTAVDKVELFLKEYLHFVKGAVANAACLPELILHNKMKRELQRVEDSHQILSQTSHDLNECSWSLNILAINKPQNKCDDLDRFVMVAKTVPDDAKQLTTTINTNAEALFRPGPGSLHLKNGPESIMNSTEYPHGGSQGQLLHPGDHKAQAHNKALPPGLSKEQAPDCSSSDGSERSWMDDYDYVHLQGKEEFERQQKELLEKENIMKQNKMQLEHHQLSQFQLLEQEITKPVENDISKWKPSQSLPTTNSGVSAQDRQLLCFYYDQCETHFISLLNAIDALFSCVSSAQPPRIFVAHSKFVILSAHKLVFIGDTLTRQVTAQDIRNKVMNSSNQLCEQLKTIVMATKMAALHYPSTTALQEMVHQVTDLSRNAQLFKRSLLEMATF
modifications: form derived from differential phosphorylation; sites not given

binding [3]: binds | binding (HsN3 (human) [4]): binds | binding (antizyme (human) [5]): binds | binding [6]: binds | binding (Smad3 [7]): binds | binding (HsN3 (human) [8]): binds | binding [9]: binds | binding (Smad2): binds | binding (HsN3 (human) [10]): binds | binding (Clone S1+12 (human)): binds | binding (antizyme (human) [11]): binds | binding (antizyme (human) [12]): binds | binding (Smad4): binds
B2: SNIP-1 (Smad1 Nuclear Interactor Protein 1), clone S1+19 (protein)
chain: PGSGQGQGRDRDTQNLQAQEEEREFYNARRREHRQRNDVGGGGSESQELVPRPGGNNKEKEVPAKEKPSFELSGALLEDTNTFRGVVIKYSEPPEARIPKKRWRLYPFKNDEVLPVMYIHRQSAYLLGRHRRIADIPIDHPSCSKQHAVFQYRLVEYTRADGTVGRRVKPYIIDLGSGNGTFLNNKRIEPQRYYELKEKDVLKFGFSSREYVLLHESSDTSEIDRKDDEDEEEEEEVSDS
